These are yes or no findings as the source states them, for the method shown. Binding seen in cells or lysates may run through a third protein. Some entries that bind do so weakly or less than the wild type. Blank lines part the entries; values can stand above or below the molecule they belong to.
What was measured:
[1] = biological target: pyruvate kinase muscle 2 (PKM2), human (human (endogenous in HMDMs)) (UniProt P14618); assay: co-IP; lysates of murine peritoneal macrophages (20 ug/ml oxLDL) or HMDMs (50 ug/ml oxLDL) treated for the indicated periods; precleared, about 1 mg protein with anti-PKM2 overnight at 4 C, A/G agarose beads, immunoblot of GRP75 or UQCRC1
[2] = biological target: pyruvate kinase muscle 2 (PKM2), mouse (mouse (endogenous in peritoneal macrophages)) (UniProt P52480); assay: as above
[3] = biological target: pyruvate kinase muscle 2 (PKM2), mouse (mouse (endogenous in peritoneal macrophages)) (UniProt P52480); assay: proximity ligation; fixed macrophages with or without 20 ug/ml oxLDL for 24 h; rabbit anti-PKM2 and mouse anti-UQCRC1, species-specific secondary antibodies with DNA strands; confocal microscopy
[4] = biological target: pyruvate kinase muscle 2 (PKM2), mouse (mouse (endogenous in peritoneal macrophages)) (UniProt P52480); assay: co-IP; lysates of murine peritoneal macrophages (20 ug/ml oxLDL) or HMDMs (50 ug/ml oxLDL) treated for the indicated periods; precleared, about 1 mg protein with anti-PKM2 overnight at 4 C, A/G agarose beads, immunoblot of GRP75 or UQCRC1; remark: listed apart in the source

Amino acid sequences for entries named in this document (tags omitted). Residues count along the entry.
UniProt P14618: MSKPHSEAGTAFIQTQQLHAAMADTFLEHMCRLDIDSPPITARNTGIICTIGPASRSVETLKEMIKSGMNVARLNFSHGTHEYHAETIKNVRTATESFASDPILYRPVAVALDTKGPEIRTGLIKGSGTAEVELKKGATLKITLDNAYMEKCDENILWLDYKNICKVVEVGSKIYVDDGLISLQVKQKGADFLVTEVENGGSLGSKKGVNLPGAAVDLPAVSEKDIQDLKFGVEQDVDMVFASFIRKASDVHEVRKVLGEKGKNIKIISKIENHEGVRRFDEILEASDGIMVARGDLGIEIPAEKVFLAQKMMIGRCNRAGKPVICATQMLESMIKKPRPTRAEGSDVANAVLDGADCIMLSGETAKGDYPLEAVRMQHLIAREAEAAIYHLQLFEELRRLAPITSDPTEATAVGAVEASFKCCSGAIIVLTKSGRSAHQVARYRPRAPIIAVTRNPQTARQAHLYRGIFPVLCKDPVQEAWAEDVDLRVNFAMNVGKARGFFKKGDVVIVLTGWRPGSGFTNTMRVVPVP
UniProt P52480: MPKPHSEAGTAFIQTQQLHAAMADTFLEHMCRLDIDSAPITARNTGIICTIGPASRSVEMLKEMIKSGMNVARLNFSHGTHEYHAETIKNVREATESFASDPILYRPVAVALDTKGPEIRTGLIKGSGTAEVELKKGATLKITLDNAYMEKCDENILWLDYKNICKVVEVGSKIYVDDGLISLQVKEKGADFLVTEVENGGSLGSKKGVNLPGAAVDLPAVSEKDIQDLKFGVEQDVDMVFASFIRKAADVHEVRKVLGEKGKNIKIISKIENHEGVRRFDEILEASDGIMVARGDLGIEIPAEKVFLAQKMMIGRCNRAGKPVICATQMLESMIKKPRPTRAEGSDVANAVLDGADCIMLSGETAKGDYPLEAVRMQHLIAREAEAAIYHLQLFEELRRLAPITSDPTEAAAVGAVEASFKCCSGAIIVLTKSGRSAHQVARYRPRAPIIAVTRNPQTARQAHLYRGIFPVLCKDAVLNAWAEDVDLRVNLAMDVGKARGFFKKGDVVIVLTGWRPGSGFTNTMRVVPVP
UniProt P38646, residues 47-679: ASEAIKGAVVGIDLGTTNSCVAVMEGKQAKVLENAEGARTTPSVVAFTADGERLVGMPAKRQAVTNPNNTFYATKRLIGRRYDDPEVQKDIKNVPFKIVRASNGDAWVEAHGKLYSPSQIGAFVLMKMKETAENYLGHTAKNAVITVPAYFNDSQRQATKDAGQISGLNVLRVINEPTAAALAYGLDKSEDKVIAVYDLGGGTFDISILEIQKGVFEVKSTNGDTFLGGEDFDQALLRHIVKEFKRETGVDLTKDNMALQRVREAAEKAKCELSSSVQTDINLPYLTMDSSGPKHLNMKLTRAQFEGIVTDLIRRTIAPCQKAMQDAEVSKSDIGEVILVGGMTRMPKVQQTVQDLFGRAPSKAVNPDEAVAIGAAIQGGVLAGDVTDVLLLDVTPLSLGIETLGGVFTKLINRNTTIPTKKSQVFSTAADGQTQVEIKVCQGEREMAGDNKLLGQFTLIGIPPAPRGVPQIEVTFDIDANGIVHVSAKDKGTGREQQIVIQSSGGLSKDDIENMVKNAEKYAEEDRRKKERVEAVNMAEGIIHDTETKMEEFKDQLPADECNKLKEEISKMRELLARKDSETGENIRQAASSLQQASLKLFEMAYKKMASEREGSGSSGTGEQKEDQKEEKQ
UniProt P38647, residues 47-679: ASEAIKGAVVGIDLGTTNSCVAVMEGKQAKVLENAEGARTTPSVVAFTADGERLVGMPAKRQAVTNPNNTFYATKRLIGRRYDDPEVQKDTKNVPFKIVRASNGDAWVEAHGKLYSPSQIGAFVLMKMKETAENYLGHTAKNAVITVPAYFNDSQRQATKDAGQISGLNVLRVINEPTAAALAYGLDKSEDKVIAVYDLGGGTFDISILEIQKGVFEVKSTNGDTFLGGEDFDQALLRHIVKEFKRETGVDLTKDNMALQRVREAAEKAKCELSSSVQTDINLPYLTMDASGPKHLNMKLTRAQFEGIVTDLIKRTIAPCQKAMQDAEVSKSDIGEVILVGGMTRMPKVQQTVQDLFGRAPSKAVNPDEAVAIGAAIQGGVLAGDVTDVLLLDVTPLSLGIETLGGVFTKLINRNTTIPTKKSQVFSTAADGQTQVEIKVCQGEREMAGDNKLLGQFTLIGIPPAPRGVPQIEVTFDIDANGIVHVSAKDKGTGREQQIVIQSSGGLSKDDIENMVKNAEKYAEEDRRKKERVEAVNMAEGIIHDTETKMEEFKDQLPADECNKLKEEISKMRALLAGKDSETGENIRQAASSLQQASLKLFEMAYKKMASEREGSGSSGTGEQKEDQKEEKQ

binding [1]: binds
Molecule: GRP75, human (from UniProt P38646 47-679)

binding [2]: binds
Molecule: GRP75, mouse (from UniProt P38647 47-679)

binding [3]: binds
binding [4]: binds
B1: UQCRC1, a subunit of ETC complex III, mouse (protein, UniProt Q9CZ13 35-480)
chain: TATFAQALQSVPETQVSILDNGLRVASEQSSHATCTVGVWIDAGSRYETEKNNGAGYFLEHLAFKGTKNRPGNALEKEVESIGAHLNAYSTREHTAYLIKALSKDLPKVVELLADIVQNSSLEDSQIEKERDVILREMQENDASMQNVVFDYLHATAFQGTPLAQAVEGPSENVRRLSRTDLTDYLNRHYKAPRMVLAAAGGVEHQQLLDLAQKHLSSVSRVYEEDAVPGLTPCRFTGSEIRHRDDALPLAHVAIAVEGPGWANPDNVTLQVANAIIGHYDCTYGGGVHLSSPLASVAVANKLCQSFQTFNISYSDTGLLGAHFVCDAMSIDDMVFFLQGQWMRLCTSATESEVTRGKNILRNALVSHLDGTTPVCEDIGRSLLTYGRRIPLAEWESRIQEVDAQMLRDICSKYFYDQCPAVAGYGPIEQLPDYNRIRSGMFWLRF

Source: PMC12142535
